From patent US20220009986A1 (AMBRX, published 2022)
These are yes or no findings as the source states them, for the method shown. Some binding calls cover weakened binding; strength is not graded here.

Key:
[1] = target: T1, biotinylated human IL-10Rα (human) (UniProt Q13651); test: BLI (Octet RED96), biotinylated human IL-10Rα on streptavidin biosensors, IL-10 as analyte
T1 sequence (biotinylated (site not stated), looked up): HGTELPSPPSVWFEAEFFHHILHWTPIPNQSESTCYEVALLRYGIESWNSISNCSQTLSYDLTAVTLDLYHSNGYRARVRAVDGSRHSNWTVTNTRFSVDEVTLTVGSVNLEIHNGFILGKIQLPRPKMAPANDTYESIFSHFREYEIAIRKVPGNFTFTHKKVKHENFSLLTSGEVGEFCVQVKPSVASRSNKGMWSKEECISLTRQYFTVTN

[2] = target: T1, biotinylated human IL-10Rα (human); test: bio-layer interferometry (Octet RED96): biotinylated human IL-10Rα on streptavidin biosensors, IL-10 as analyte, 240 s association, 600 s dissociation, global 1:1 Langmuir fit

- binding [1]: binds
- binding [2]: binds
B1: IL-10 wild type (mature wild type human IL-10) (ligand)
chain: SPGQGTQSENSCTHFPGNLPNMLRDLRDAFSRVKTFFQMKDQLDNLLLKESLLEDFKGYLGCQALSEMIQFYLEEVMPQAENQDPDIKAHVNSLGENLKTLRLRLRRCHRFLPCENKSKAVEQVKNAFNKLQEKGIYKAMSEFDIFINYIEAYMTMKIRN
